Data from the supplement of paper PMC8728848.
The list shows a part of the results.

Assays:
Test in all cases: glycan array binding signal (z-score within array); higher = stronger binding
Settings in all cases: glycan notation: IUPAC condensed, linker removed
[1] = target: Fuc(a1-2)Gal6S(b1-3)GlcNAc6S
How it was run: (§1)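 The binding signal is a Z-score computed within each array and averaged over linkers. Arrays of the same protein sequence at different concentrations or buffers were also averaged together. Data originate from 3228 arrays in the Consortium for Functional Glycomics database, kept only where the protein sequence was available.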

Fuc(a1-2)Gal6S(b1-4)Glc = target: Fuc(a1-2)Gal6S(b1-4)Glc
How it was run: as §1

[2] = target: Fuc(a1-2)Gal6S(b1-4)Glc6S
How it was run: as §1

Fuc(a1-2)[Gal(a1-3)]Gal = target: Fuc(a1-2)[Gal(a1-3)]Gal
How it was run: as §1

[3] = target: Fuc(a1-2)[Gal(a1-3)]Gal(b1-3)GalNAc
How it was run: as §1

[4] = target: Fuc(a1-2)[Gal(a1-3)]Gal(b1-3)GalNAc(b1-3)Gal(a1-4)Gal(b1-4)Glc
How it was run: as §1

[5] = target: Fuc(a1-2)[Gal(a1-3)]Gal(b1-3)GlcNAc
How it was run: as §1

[6] = target: Fuc(a1-2)[Gal(a1-3)]Gal(b1-3)GlcNAc(b1-2)Man(a1-3)[Fuc(a1-2)[Gal(a1-3)]Gal(b1-3)GlcNAc(b1-2)Man(a1-6)]Man(b1-4)GlcNAc(b1-4)GlcNAc
How it was run: as §1

[7] = target: Fuc(a1-2)[Gal(a1-3)]Gal(b1-3)GlcNAc(b1-2)Man(a1-3)[Fuc(a1-2)[Gal(a1-3)]Gal(b1-3)GlcNAc(b1-2)Man(a1-6)]Man(b1-4)GlcNAc(b1-4)[Fuc(a1-6)]GlcNAc
How it was run: as §1

[8] = target: Fuc(a1-2)[Gal(a1-3)]Gal(b1-3)GlcNAc(b1-3)GalNAc
How it was run: as §1

[9] = target: Fuc(a1-2)[Gal(a1-3)]Gal(b1-3)GlcNAc(b1-6)GalNAc
How it was run: as §1

[10] = target: Fuc(a1-2)[Gal(a1-3)]Gal(b1-4)Glc
How it was run: as §1

[11] = target: Fuc(a1-2)[Gal(a1-3)]Gal(b1-4)GlcNAc
How it was run: as §1

[12] = target: Fuc(a1-2)[Gal(a1-3)]Gal(b1-4)GlcNAc(b1-2)Man
How it was run: as §1

[13] = target: Fuc(a1-2)[Gal(a1-3)]Gal(b1-4)GlcNAc(b1-2)Man(a1-3)[Fuc(a1-2)[Gal(a1-3)]Gal(b1-4)GlcNAc(b1-2)Man(a1-6)]Man(b1-4)GlcNAc(b1-4)GlcNAc
How it was run: as §1

[14] = target: Fuc(a1-2)[Gal(a1-3)]Gal(b1-4)GlcNAc(b1-2)Man(a1-3)[Fuc(a1-2)[Gal(a1-3)]Gal(b1-4)GlcNAc(b1-2)Man(a1-6)]Man(b1-4)GlcNAc(b1-4)[Fuc(a1-6)]GlcNAc
How it was run: as §1

[15] = target: Fuc(a1-2)[Gal(a1-3)]Gal(b1-4)GlcNAc(b1-3)GalNAc
How it was run: as §1

[16] = target: Fuc(a1-2)[Gal(a1-3)]Gal(b1-4)GlcNAc(b1-3)[Fuc(a1-2)[Gal(a1-3)]Gal(b1-4)GlcNAc(b1-6)]GalNAc
How it was run: as §1

[17] = target: Fuc(a1-2)[Gal(a1-3)]Gal(b1-4)GlcNAc(b1-6)GalNAc
How it was run: as §1

[18] = target: Fuc(a1-2)[Gal(a1-3)]Gal(b1-4)[Fuc(a1-3)]Glc
How it was run: as §1

[19] = target: Fuc(a1-2)[Gal(a1-3)]Gal(b1-4)[Fuc(a1-3)]GlcNAc
How it was run: as §1

[20] = target: Fuc(a1-2)[Gal(a1-3)]Gal(b1-4)[Fuc(a1-3)]GlcNAc(b1-3)GalNAc
How it was run: as §1

[21] = target: Fuc(a1-2)[Gal(a1-4)]Gal(b1-4)GlcNAc
How it was run: as §1

[22] = target: Fuc(a1-2)[GalNAc(a1-3)]Gal
How it was run: as §1

[23] = target: Fuc(a1-2)[GalNAc(a1-3)]Gal(b1-3)GalNAc(a1-3)[Fuc(a1-2)]Gal(b1-4)GlcNAc
How it was run: as §1

[24] = target: Fuc(a1-2)[GalNAc(a1-3)]Gal(b1-3)GalNAc(b1-3)Gal(a1-4)Gal(b1-4)Glc
How it was run: as §1

[25] = target: Fuc(a1-2)[GalNAc(a1-3)]Gal(b1-3)GlcNAc
How it was run: as §1

[26] = target: Fuc(a1-2)[GalNAc(a1-3)]Gal(b1-3)GlcNAc(b1-2)Man(a1-3)[Fuc(a1-2)[GalNAc(a1-3)]Gal(b1-3)GlcNAc(b1-2)Man(a1-6)]Man(b1-4)GlcNAc(b1-4)GlcNAc
How it was run: as §1

[27] = target: Fuc(a1-2)[GalNAc(a1-3)]Gal(b1-3)GlcNAc(b1-2)Man(a1-3)[Fuc(a1-2)[GalNAc(a1-3)]Gal(b1-3)GlcNAc(b1-2)Man(a1-6)]Man(b1-4)GlcNAc(b1-4)[Fuc(a1-6)]GlcNAc
How it was run: as §1

[28] = target: Fuc(a1-2)[GalNAc(a1-3)]Gal(b1-3)GlcNAc(b1-3)GalNAc
How it was run: as §1

[29] = target: Fuc(a1-2)[GalNAc(a1-3)]Gal(b1-3)GlcNAc(b1-6)GalNAc
How it was run: as §1

[30] = target: Fuc(a1-2)[GalNAc(a1-3)]Gal(b1-4)Glc
How it was run: as §1

[31] = target: Fuc(a1-2)[GalNAc(a1-3)]Gal(b1-4)GlcNAc
How it was run: as §1

[32] = target: Fuc(a1-2)[GalNAc(a1-3)]Gal(b1-4)GlcNAc(b1-2)Man
How it was run: as §1

[33] = target: Fuc(a1-2)[GalNAc(a1-3)]Gal(b1-4)GlcNAc(b1-2)Man(a1-3)[Fuc(a1-2)[GalNAc(a1-3)]Gal(b1-4)GlcNAc(b1-2)Man(a1-6)]Man(b1-4)GlcNAc(b1-4)GlcNAc
How it was run: as §1

[34] = target: Fuc(a1-2)[GalNAc(a1-3)]Gal(b1-4)GlcNAc(b1-2)Man(a1-3)[Fuc(a1-2)[GalNAc(a1-3)]Gal(b1-4)GlcNAc(b1-2)Man(a1-6)]Man(b1-4)GlcNAc(b1-4)[Fuc(a1-6)]GlcNAc
How it was run: as §1

[35] = target: Fuc(a1-2)[GalNAc(a1-3)]Gal(b1-4)GlcNAc(b1-3)Gal(b1-4)GlcNAc
How it was run: as §1

[36] = target: Fuc(a1-2)[GalNAc(a1-3)]Gal(b1-4)GlcNAc(b1-3)Gal(b1-4)GlcNAc(b1-3)Gal(b1-4)GlcNAc
How it was run: as §1

[37] = target: Fuc(a1-2)[GalNAc(a1-3)]Gal(b1-4)GlcNAc(b1-3)GalNAc
How it was run: as §1

[38] = target: Fuc(a1-2)[GalNAc(a1-3)]Gal(b1-4)GlcNAc(b1-3)[Fuc(a1-2)[GalNAc(a1-3)]Gal(b1-4)GlcNAc(b1-6)]GalNAc
How it was run: as §1

[39] = target: Fuc(a1-2)[GalNAc(a1-3)]Gal(b1-4)GlcNAc(b1-6)GalNAc
How it was run: as §1

[40] = target: Fuc(a1-2)[GalNAc(a1-3)]Gal(b1-4)[Fuc(a1-3)]GlcNAc
How it was run: as §1

[41] = target: Fuc(a1-2)[GalNAc(a1-3)]Gal(b1-4)[Fuc(a1-3)]GlcNAc(b1-3)GalNAc
How it was run: as §1

[42] = target: Fuc(a1-2)[GalNAc(a1-4)]Gal(b1-4)GlcNAc
How it was run: as §1

[43] = target: Fuc(a1-2)[GalNAc(b1-3)]Gal
How it was run: as §1

B1: PX15642A-pgi-501-20-501 (Parabacteroides gingivalis) (protein)
chain: CELDRDPEGKDFQQPYTSFVQTKQNRDGLYALLRNTENPRMHFYQELQSDMYCTTITDGNSLAPFVNWDLGILNDHGRADEDEVSGIAGYYFVYNRLNQQANAFVNNTEAALQNQVYKNSTEIANAKSFLAEGKVLQALAIWRLMDRFSFHESVTEVNSGAKDLGVILLKEYNPGYIGPRATKAQCYDYILSRLSEAIEVLPENRESVLYVSRDYAYALRARIYLALGEYGKAAADAKMVVDKYPLIGAADASEFENIYRSDANNPEIIFRGFASATLGSFTATTLNGAAPAGKDIKYNPSAVPFQWVVDLYENEDFRKSVYIAKVVKKDKGYLVNKFLEDKAYRDVQDKPNLKVGARYFSVAEVYLILVESALQTGDTPTAEKYLKALSKARGAEVSVVNMEALQAERTRELIGEGSRLRDMVRWSIPNNHDAFETQPGLEGFANTTPLKAQAPVGFYAYTWEFPQRDRQTNPQLIKNWPI
B1 was tested, and the “glycan array binding signal (z-score)” value [1] was 1.84, the “glycan array binding signal (z-score)” value (Fuc(a1-2)Gal6S(b1-4)Glc) was -0.623 and the “glycan array binding signal (z-score)” value [2] was -0.092. For the same binder, the “glycan array binding signal (z-score)” value (Fuc(a1-2)[Gal(a1-3)]Gal) was -0.188, the “glycan array binding signal (z-score)” value [3] was -0.291 and the “glycan array binding signal (z-score)” value [4] was -0.013. For the same binder, the “glycan array binding signal (z-score)” value [5] was -0.015, the “glycan array binding signal (z-score)” value [6] was 1.53 and the “glycan array binding signal (z-score)” value [7] was 0.149. For the same binder, the “glycan array binding signal (z-score)” value [8] was -1.06, the “glycan array binding signal (z-score)” value [9] was -0.359 and the “glycan array binding signal (z-score)” value [10] was -0.405. For the same binder, the “glycan array binding signal (z-score)” value [11] was 1.03, the “glycan array binding signal (z-score)” value [12] was -0.144 and the “glycan array binding signal (z-score)” value [13] was 0.849. The “glycan array binding signal (z-score)” value [14] was 0.097, the “glycan array binding signal (z-score)” value [15] was 1.21 and the “glycan array binding signal (z-score)” value [16] was 0.225. The “glycan array binding signal (z-score)” value [17] was 1.03, the “glycan array binding signal (z-score)” value [18] was -0.368 and the “glycan array binding signal (z-score)” value [19] was -0.478. For the same binder, the “glycan array binding signal (z-score)” value [20] was -0.679, the “glycan array binding signal (z-score)” value [21] was -0.568 and the “glycan array binding signal (z-score)” value [22] was -0.376. For the same binder, the “glycan array binding signal (z-score)” value [23] was -0.538, the “glycan array binding signal (z-score)” value [24] was -0.132 and the “glycan array binding signal (z-score)” value [25] was -0.172. The “glycan array binding signal (z-score)” value [26] was 0.836, the “glycan array binding signal (z-score)” value [27] was -0.3 and the “glycan array binding signal (z-score)” value [28] was 0.405. The “glycan array binding signal (z-score)” value [29] was 0.189, the “glycan array binding signal (z-score)” value [30] was -0.238 and the “glycan array binding signal (z-score)” value [31] was 0.107. The “glycan array binding signal (z-score)” value [32] was -0.848, the “glycan array binding signal (z-score)” value [33] was 0.43 and the “glycan array binding signal (z-score)” value [34] was -1.03. The “glycan array binding signal (z-score)” value [35] was -0.401, the “glycan array binding signal (z-score)” value [36] was 0.25 and the “glycan array binding signal (z-score)” value [37] was -0.574. For the same binder, the “glycan array binding signal (z-score)” value [38] was -0.728, the “glycan array binding signal (z-score)” value [39] was -0.399 and the “glycan array binding signal (z-score)” value [40] was 0.056. The “glycan array binding signal (z-score)” value [41] was 1.34, the “glycan array binding signal (z-score)” value [42] was -0.172 and the “glycan array binding signal (z-score)” value [43] was 0.871.
